This assay is described as follows: qHTS Assay to Find Inhibitors of Chronic Active B-Cell Receptor Signaling. Conditions: ABC-DLBCL IkBa-CBG/CBR reporter, luminescence ratio (green luciferase fused to IkBa over red control in TMD8 lymphoma cells), 4 h. In outline:
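TMD8 ABC-DLBCL cells carrying doxycycline-inducible green luciferase fused to IkappaBalpha plus unfused red luciferase were exposed to compounds (up to 46 uM) for 4 hrs at 37C. Activity came from the overlap-corrected green/red luminescence ratio.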

Setting [1] is: measured here: CBR red luminescence, cell number.
Where [2] appears, read: measured here: IkBa-CBG green luminescence.

Each structure is given as a SMILES string. Values joined by “and” are separate entries in the source; they are usually repeats but may differ in a detail not shown here. Identical values can stand only once. Some of the results follow. Shown are side measurements of this screen, not its main read-out; they come without a call. Most of these compounds were active or inconclusive in the main read-out, so they are no random draw. Potencies come from curve fits of mixed quality, noted in brackets.

Take `COc1ccc(OC)c(-c2csc(NC(=O)Cc3ccc(OC)c(OC)c3)n2)c1`: the AC50 under setting [1] was 20 µM [falling, single point]. Turning to `C=CCn1c(=O)c2ccccc2n2c(SCC(C)=O)nnc12`, the AC50 under setting [1] was 3.16 µM [falling, single point]. `Cc1ccc(N=Cc2c(O)c3ccccc3oc2=O)cc1F`: the AC50 under setting [1] was 0.794 µM [falling, full curve]. As for `O=C(Nc1cccc(Cl)c1)c1ccncc1`, the AC50 under setting [1] is 14.6 µM [rising, single point].

For `Cc1cc(Cl)n2ncc(-c3ccccc3)c2n1`, the AC50 under setting [1] was 12.6 µM [falling, single point]. For the compound `O=C(CNc1ccc(Cl)cc1)c1ccc(Br)cc1`, the AC50 under setting [1] was 31.6 µM [rising, single point].

With `COc1ccc(/C=C/C=C2\N=C(SC)SC2=O)cc1`, the AC50 under setting [1] is 5.17 µM [rising, partial curve]. As to `N#Cc1ccsc1NC(=O)CN1CCN(S(=O)(=O)c2cc(Cl)ccc2Cl)CC1`, under setting [1], the AC50 is 4.61 µM [rising, full curve, poor fit].

Take `CCC(c1nnnn1C1CCCC1)N(Cc1cccs1)Cc1cc2cccc(C)c2[nH]c1=O` (configuration not stated): the AC50 under setting [1] is 3.16 µM [falling, full curve].

With `C=C1C(=O)O[C@H]2C1CC[C@@](C)(O)C13C=CC(C)(C21)C1(C3)C(=O)O[C@@H]2C3C(C)=CCC3[C@](C)(O)C[C@H](OC(C)=O)C21` (some centres not stated), under setting [1], the half-maximal activity concentration (AC50) was 18.4 µM [falling, single point].

For `O=C(NC1CC1)C1CCN(C2CCN(C(=O)/C=C/c3cccs3)CC2)CC1`, the concentration at half-maximal activity (AC50) under setting [1] was 35.5 µM [falling, single point]. The same measure, in the same setting: the figure for `CC(C)=C1SC(N2CCN(Cc3ccccc3)CC2)=NC1=O` is 0.316 µM [falling, full curve, poor fit]. Same read-out and setting: the figure for `COc1ccc(NS(=O)(=O)c2ccc(C)c(NC(=O)c3ccc(C)c(S(=O)(=O)N4CCOCC4)c3)c2)cc1` is 2.91 µM [rising, single point]. Turning to `CC1=Nc2cc(C(=O)NC3CCCC3)ccc2Sc2ccc(Cl)cc21`, the AC50 runs as follows: under setting [1], 3.55 µM [rising, full curve]; under setting [2], 7.94 µM [falling, partial curve]. As to `CCOC(=O)c1cnn(-c2cc(Oc3ccccc3C)ncn2)c1N`, the AC50 under setting [1] is 29.1 µM [rising, single point]. In the case of `Cc1[nH]c2ccccc2c1/C=N/Nc1ccccc1[N+](=O)[O-]`, the AC50 under setting [1] was 5.01 µM [rising, full curve, poor fit]. `O=C(CN1CCN(S(=O)(=O)c2ccc(Br)cc2)CC1)N/N=C/c1cc([N+](=O)[O-])ccc1Cl`: under setting [2], the AC50 is 29.1 µM [rising, partial curve, poor fit]. Regarding `C=CCNC(=O)c1onc(CSc2ccccc2C)c1C(=O)O`, the concentration at half-maximal activity (AC50) under setting [1] is 8.91 µM [falling, partial curve]. `c1ccc(-c2nnc(-c3ccccn3)nc2NC2CCCCC2)cc1`: the AC50 under setting [1] is 18.4 µM [falling, single point].

For the compound `COc1ccc(Cl)cc1NC(=O)CC(C)c1ccccc1` (configuration not stated), the AC50 under setting [1] was 0.058 µM [rising, full curve, poor fit]. The same measure, in the same setting: the figure for `CCc1ccc(OC)c(-c2csc(N)n2)c1` is 6.31 µM [falling, single point]; for `Cc1cc(=O)n2[nH]c(-c3ccc(C(C)(C)C)cc3)cc2n1` it is 164 nM [falling, full curve, poor fit] and 5.62 µM [rising, full curve, poor fit].

Regarding `CC(Sc1nnc2ccccn12)C(=O)NCc1ccc2c(c1)OCO2` (configuration not stated), the AC50 under setting [1] is 15.8 µM [falling, partial curve, poor fit].

`Cc1ccccc1NC(=O)Cc1nnc(NC(=O)Nc2ccccc2F)s1`: under setting [1], the concentration at half-maximal activity (AC50) is 0.158 µM [falling, full curve, poor fit]. Same read-out and setting: the result for `O=C1C=C(c2cnc3ccccc3c2)C[C@@H](c2ccc3c(c2)OCO3)C1` reads 0.731 µM [rising, full curve]. As to `OC(CNc1nc2ccccc2s1)c1ccccc1` (configuration not stated), the half-maximal activity concentration (AC50) under setting [1] was 18.4 µM [falling, partial curve, poor fit]. Consider `Cc1ccc(Cl)cc1N1CCN(S(=O)(=O)c2cn(C)cn2)CC1`, for which, under setting [1], the AC50 is 3.98 µM [rising, full curve, poor fit]. As to `CC(NC(=O)/C(C#N)=C/c1ccc([N+](=O)[O-])o1)c1ccccc1` (configuration not stated), the AC50 runs as follows: under setting [1], 22.4 µM [falling, single point]; under setting [2], 35.5 µM [rising, partial curve, poor fit]. Turning to `Cc1cc(NC(=O)c2ccc(N3C(=O)C4C5C=CC(C5)C4C3=O)cc2)no1` (configuration not stated), the AC50 reads like this: under setting [1], 1.12 µM [falling, full curve, poor fit]; under setting [2], 0.562 µM [rising, full curve, poor fit]. Turning to `ClC1(Cl)CC1Cn1c(C2CC2)nc2ccccc21` (configuration not stated), the AC50 under setting [1] is 35.5 µM [rising, single point]. For the compound `COc1ccccc1CNC(=O)CN1C(=O)N(C)C2(CCCCC2)C1=O`, the AC50 under setting [1] was 0.58 µM [rising, full curve, poor fit]. In the case of `Cc1nn(C)c(C(=O)NN)c1Cl`, the concentration at half-maximal activity (AC50) under setting [1] was 7.94 µM [falling, partial curve].

On to `Nc1nc(-c2ccco2)nn1C(=O)c1ccc(F)cc1`, for which the AC50 under setting [1] was 1.12 µM [falling, partial curve]. In the case of `Cc1cc(C(=O)Nc2nnc(-c3ccccc3)s2)no1`, the concentration at half-maximal activity (AC50) under setting [1] is 1 µM [falling, full curve]. For the compound `COc1ccccc1NCCC(=O)OCC(=O)NC1CC1`, under setting [1], the AC50 is 29.1 µM [falling, single point].

In the case of `COCCNc1nc(C)cc(-c2cc(C(=O)NC3CCCC3)on2)n1`, the AC50 under setting [1] was 4.47 µM [falling, partial curve]. Consider `O=C(NC12CC3CC(CC(C3)C1)C2)c1ccccc1O`, for which the AC50 under setting [1] was 20.6 µM [rising, partial curve]. On to `Cc1ccc(N2C(=O)CC(Cc3cccc(C)c3)C2=O)cc1` (configuration not stated), for which, under setting [1], the AC50 was 0.1 µM [rising, full curve, poor fit]. Same read-out and setting: the figure for `CC(=O)Oc1ccc(-c2nc3ccccc3c(=O)o2)cc1` is 12.6 µM [falling, partial curve]; for `CCN1CCN(c2ccc(NC(=O)c3cc(S(=O)(=O)N4CCCC4)ccc3Cl)cc2)CC1` it is 23.1 µM [rising, partial curve, poor fit]; for `CCOC(=O)c1c(NC(=O)c2ccccc2N(C)S(=O)(=O)c2ccccc2)sc2c1CCCC2` it is 29.1 µM [falling, single point].

Turning to `Cc1ccc(S(=O)(=O)NCCc2nnc3ccc(SCC(=O)Nc4nc5ccccc5s4)nn23)cc1`, the AC50 under setting [1] is 6.51 µM [falling, single point]. Regarding `COc1ccc(CN(C(=O)c2ccc(CN3CCOCC3)o2)C(C(=O)NCC2CCCO2)c2ccc(F)cc2)cc1` (configuration not stated), the AC50 under setting [1] is 14.1 µM [falling, partial curve, poor fit]. As for `Cc1nc(-c2ccccc2)sc1C1(C)CC(c2cccc([N+](=O)[O-])c2)=NO1` (configuration not stated), under setting [1], the AC50 is 35.5 µM [rising, partial curve, poor fit]. As to `Cc1ccc(NC(=O)C(c2ccccc2)N(C)C)cc1Cl` (configuration not stated), under setting [1], the AC50 is 0.355 µM [rising, full curve, poor fit].

With `COc1ccccc1CNC(=O)C1CCC(CNS(=O)(=O)c2ccc(NC(C)=O)cc2)CC1` (configuration not stated), under setting [1], the AC50 was 6.31 µM [rising, single point]. On to `Cc1ccc(-c2csc(NC(=O)c3ccc4c(=O)n5c(nc4c3)CCCCC5)n2)cc1`, for which the AC50 under setting [1] was 5.17 µM [falling, single point]. Take `CCC(CC)c1nnc(NC(=O)CN2C(=O)C3C4C=CC(C4)C3C2=O)s1` (configuration not stated): under setting [1], the AC50 is 2.06 µM [rising, partial curve, poor fit]. `C=CCNc1nc(SCC=C)nc2ccsc12`: the AC50 under setting [1] was 12.6 µM [rising, partial curve, poor fit].

For the compound `Cc1ccc(O)c(-c2cc(C(=O)Nc3ccc(S(=O)(=O)Nc4nccc(C)n4)cc3)[nH]n2)c1`, under setting [1], the AC50 was 20 µM [falling, single point]. In the case of `O=C(Nc1ccccc1)C1Cc2ccccc2CN1C(=O)c1ccco1` (configuration not stated), under setting [1], the AC50 is 9.2 µM [falling, partial curve]. As for `Cc1nn(CCC(=O)NNC(=S)NCC(C)C)c(C)c1Br`, the AC50 under setting [2] is 11.6 µM [falling, partial curve]. Regarding `c1ccc(N2CCCCC2)c(Nc2nc3ccccc3n3cnnc23)c1`, the concentration at half-maximal activity (AC50) under setting [1] was 6.31 µM [rising, full curve, poor fit]. Turning to `CN(C)CCCNS(=O)(=O)c1ccc(N2CCN(Cc3ccc4c(c3)OCO4)CC2)c([N+](=O)[O-])c1`, under setting [1], the AC50 was 35.5 µM [falling, single point]. In the case of `Nc1c(-c2ccccc2)cnc2cc(-c3ccccc3)nn12`, under setting [1], the AC50 was 2.82 µM [falling, full curve]. Same read-out and setting: the figure for `O=C(O)CC(CC(=O)Nc1ccc(Oc2ccccc2)cc1)c1ccccc1` (configuration not stated) is 0.447 µM [falling, full curve, poor fit]; for `Cc1ccc(-n2ncc3c(N4CCCCC4)ncnc32)cc1` it is 11.2 µM [falling, single point]. `CCN(CC)S(=O)(=O)c1cccc(-c2nnc(C(=O)c3ccc(C(F)(F)F)cc3)o2)c1`: the AC50 under setting [1] is 35.5 µM [rising, partial curve, poor fit]. In the case of `COc1ccc2cnn(CCOc3ccccc3)c(=O)c2c1OC`, the AC50 under setting [1] is 25.1 µM [falling, single point]. For `COc1ccccc1CNS(=O)(=O)c1ccc(-c2cc(C)no2)cc1`, the AC50 under setting [1] is 10 µM [rising, partial curve] and the AC50 under setting [2] is 11.2 µM [falling, partial curve]. As to `O=C(OCC(=O)N1CCC(Cc2ccccc2)CC1)c1ccccc1NCCO`, the AC50 under setting [1] was 2.31 µM [falling, full curve]. `CCCC1=Nc2cc(C(=O)NCCCOCC)ccc2Sc2ccccc21`: the AC50 reads like this: under setting [1], 1.26 µM [rising, full curve, poor fit]; under setting [2], 0.794 µM [falling, full curve, poor fit].

Values taken from PubChem BioAssay AID493014 (National Center for Advancing Translational Sciences (NCATS), 2011).
